Source: PMC9270420
No constants are given. Whether binding was seen depends on the method and setting. Binding seen in cells or lysates may run through a third protein. Some binding calls cover weakened binding; strength is not graded here.

Protein sequences, listed by entry. Tags and fused reporters are not part of them.
UniProt P34152: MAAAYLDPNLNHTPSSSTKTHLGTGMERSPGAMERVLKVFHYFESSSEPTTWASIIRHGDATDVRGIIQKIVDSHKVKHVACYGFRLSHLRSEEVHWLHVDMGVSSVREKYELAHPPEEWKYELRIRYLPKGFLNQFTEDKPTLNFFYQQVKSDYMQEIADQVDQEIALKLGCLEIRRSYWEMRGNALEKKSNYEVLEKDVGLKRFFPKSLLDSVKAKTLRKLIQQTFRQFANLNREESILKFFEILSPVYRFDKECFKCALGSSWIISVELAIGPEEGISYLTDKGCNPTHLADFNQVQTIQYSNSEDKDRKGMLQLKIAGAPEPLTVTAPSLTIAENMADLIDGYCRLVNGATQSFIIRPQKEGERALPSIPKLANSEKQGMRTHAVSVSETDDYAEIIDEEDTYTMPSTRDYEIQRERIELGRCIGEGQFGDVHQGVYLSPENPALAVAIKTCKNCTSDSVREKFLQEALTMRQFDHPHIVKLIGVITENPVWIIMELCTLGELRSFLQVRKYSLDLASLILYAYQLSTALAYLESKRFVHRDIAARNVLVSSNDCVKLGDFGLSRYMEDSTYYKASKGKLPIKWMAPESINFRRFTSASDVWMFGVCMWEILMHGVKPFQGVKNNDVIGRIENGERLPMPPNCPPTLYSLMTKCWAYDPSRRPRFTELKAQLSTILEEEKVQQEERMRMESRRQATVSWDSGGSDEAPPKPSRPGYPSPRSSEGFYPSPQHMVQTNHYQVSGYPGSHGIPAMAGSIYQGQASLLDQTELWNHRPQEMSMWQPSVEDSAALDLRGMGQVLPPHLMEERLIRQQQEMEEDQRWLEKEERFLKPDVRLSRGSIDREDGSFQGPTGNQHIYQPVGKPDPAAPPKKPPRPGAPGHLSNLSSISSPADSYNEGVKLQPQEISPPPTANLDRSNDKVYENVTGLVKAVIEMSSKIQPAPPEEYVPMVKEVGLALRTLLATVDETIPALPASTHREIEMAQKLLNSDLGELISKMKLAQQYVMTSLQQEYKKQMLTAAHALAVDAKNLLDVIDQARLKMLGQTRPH

Legend:
[1] = target: focal adhesion kinase (FAK) (mouse (endogenous in RAW 264.7 cells and mouse lung tissue)) (UniProt P34152); assay: co-IP; mouse lung tissues after intratracheal LPS, with or without PND-1186 treatment of the mice; complexes of FAK-TAK1 detected by immunoprecipitation
[2] = target: focal adhesion kinase (FAK) (mouse (endogenous in RAW 264.7 cells and mouse lung tissue)) (UniProt P34152); assay: co-IP; RAW 264.7 cell extracts incubated with anti-FAK antibody for 1 h, precipitated with protein G-Sepharose at 4 °C overnight, TAK1 detected by immunoblot; cells treated with 0.5 μg/mL LPS (10 min or the indicated times), with or without 1 μM PND-1186 pretreatment for 1 h

B1: transforming growth factor-β-activated kinase-1 (TAK1) (protein, UniProt Q62073 1-579)
chain: MSTASAASSSSSSSASEMIEAPSQVLNFEEIDYKEIEVEEVVGRGAFGVVCKAKWRAKDVAIKQIESESERKAFIVELRQLSRVNHPNIVKLYGACLNPVCLVMEYAEGGSLYNVLHGAEPLPYYTAAHAMSWCLQCSQGVAYLHSMQPKALIHRDLKPPNLLLVAGGTVLKICDFGTACDIQTHMTNNKGSAAWMAPEVFEGSNYSEKCDVFSWGIILWEVITRRKPFDEIGGPAFRIMWAVHNGTRPPLIKNLPKPIESLMTRCWSKDPSQRPSMEEIVKIMTHLMRYFPGADEPLQYPCQYSDEGQSNSATSTGSFMDIASTNTSNKSDTNMEQVPATNDTIKRLESKLLKNQAKQQSESGRLSLGASRGSSVESLPPTSEGKRMSADMSEIEARIVATAGNGQPRRRSIQDLTVTGTEPGQVSSRSSSPSVRMITTSGPTSEKPARSHPWTPDDSTDTNGSDNSIPMAYLTLDHQLQPLAPCPNSKESMAVFEQHCKMAQEYMKVQTEIALLLQRKQELVAELDQDEKDQQNTSRLVQEHKKLLDENKSLSTYYQQCKKQLEVIRSQQQKRQGTS
binding [1]: binds | binding [2]: binds
